This is one part of the list.
Compound: CCCS(=O)(=O)Nc1ccc(F)c(C(=O)c2c[nH]c3ncc(Cl)cc23)c1F
Experiment: log2 fold change, soluble protein after heating vs DMSO (PISA); higher = thermal stabilisation; K562 cells, 10 uM, 30 min; active = over 0.2 and 3.5 SD of the protein, either way, in both replicates (recomputed)
Method in brief: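 K562 cells at 2×10^6 cells/mL were given 10 μM compound for 30 min. Aliquots then went through 3 min of heating across 48°C-58°C, were pooled, and were extracted in PBS with 0.5% NP-40 at 4°C, and the supernatant after 21,000xg for 90 min was quantified by TMTpro 16plex LC-MS/MS with channel sums equalised. Thermal stability relative to control samples, from duplicates, is given as log2 fold change.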

Amino acid sequences for entries named in this document (tags omitted). A change or cut given only in a name is not applied to a line headed by its entry.
UniProt P0C7P0: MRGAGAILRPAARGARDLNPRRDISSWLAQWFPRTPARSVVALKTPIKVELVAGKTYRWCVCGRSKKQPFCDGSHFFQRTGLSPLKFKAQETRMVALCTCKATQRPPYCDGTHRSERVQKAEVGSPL
UniProt P09496: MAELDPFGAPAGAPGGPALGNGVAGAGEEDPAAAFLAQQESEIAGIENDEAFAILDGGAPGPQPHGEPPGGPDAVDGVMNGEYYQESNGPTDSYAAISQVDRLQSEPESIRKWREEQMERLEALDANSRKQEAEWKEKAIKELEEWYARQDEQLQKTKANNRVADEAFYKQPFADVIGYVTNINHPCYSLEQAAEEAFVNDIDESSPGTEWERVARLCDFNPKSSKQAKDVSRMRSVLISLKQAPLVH
UniProt Q9Y2R0: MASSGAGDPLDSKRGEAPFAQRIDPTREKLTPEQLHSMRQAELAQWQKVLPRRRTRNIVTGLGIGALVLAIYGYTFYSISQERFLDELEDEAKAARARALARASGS
UniProt P12277: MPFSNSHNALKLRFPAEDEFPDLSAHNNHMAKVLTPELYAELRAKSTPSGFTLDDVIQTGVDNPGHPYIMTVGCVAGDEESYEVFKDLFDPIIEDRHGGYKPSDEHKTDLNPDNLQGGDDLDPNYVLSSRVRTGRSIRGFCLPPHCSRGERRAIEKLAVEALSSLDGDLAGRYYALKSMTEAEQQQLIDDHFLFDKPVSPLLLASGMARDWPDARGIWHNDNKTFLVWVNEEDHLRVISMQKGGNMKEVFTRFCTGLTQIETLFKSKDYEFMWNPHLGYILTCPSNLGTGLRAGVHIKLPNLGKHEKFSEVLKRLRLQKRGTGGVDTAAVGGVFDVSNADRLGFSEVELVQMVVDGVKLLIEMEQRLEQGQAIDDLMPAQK
UniProt P09497: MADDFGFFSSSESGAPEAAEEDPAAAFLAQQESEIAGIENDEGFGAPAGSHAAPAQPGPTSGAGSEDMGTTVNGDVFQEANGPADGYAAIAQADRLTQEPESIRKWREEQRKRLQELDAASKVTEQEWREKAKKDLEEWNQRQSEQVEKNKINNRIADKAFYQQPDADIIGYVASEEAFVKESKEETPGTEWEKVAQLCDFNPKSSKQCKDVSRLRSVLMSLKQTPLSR
UniProt Q96BR5: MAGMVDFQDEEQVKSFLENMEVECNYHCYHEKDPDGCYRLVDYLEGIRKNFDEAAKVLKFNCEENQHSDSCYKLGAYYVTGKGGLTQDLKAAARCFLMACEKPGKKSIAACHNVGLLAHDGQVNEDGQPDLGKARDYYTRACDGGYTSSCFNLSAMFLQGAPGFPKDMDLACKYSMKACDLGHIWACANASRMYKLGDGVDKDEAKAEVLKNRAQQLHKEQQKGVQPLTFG
UniProt Q7Z460: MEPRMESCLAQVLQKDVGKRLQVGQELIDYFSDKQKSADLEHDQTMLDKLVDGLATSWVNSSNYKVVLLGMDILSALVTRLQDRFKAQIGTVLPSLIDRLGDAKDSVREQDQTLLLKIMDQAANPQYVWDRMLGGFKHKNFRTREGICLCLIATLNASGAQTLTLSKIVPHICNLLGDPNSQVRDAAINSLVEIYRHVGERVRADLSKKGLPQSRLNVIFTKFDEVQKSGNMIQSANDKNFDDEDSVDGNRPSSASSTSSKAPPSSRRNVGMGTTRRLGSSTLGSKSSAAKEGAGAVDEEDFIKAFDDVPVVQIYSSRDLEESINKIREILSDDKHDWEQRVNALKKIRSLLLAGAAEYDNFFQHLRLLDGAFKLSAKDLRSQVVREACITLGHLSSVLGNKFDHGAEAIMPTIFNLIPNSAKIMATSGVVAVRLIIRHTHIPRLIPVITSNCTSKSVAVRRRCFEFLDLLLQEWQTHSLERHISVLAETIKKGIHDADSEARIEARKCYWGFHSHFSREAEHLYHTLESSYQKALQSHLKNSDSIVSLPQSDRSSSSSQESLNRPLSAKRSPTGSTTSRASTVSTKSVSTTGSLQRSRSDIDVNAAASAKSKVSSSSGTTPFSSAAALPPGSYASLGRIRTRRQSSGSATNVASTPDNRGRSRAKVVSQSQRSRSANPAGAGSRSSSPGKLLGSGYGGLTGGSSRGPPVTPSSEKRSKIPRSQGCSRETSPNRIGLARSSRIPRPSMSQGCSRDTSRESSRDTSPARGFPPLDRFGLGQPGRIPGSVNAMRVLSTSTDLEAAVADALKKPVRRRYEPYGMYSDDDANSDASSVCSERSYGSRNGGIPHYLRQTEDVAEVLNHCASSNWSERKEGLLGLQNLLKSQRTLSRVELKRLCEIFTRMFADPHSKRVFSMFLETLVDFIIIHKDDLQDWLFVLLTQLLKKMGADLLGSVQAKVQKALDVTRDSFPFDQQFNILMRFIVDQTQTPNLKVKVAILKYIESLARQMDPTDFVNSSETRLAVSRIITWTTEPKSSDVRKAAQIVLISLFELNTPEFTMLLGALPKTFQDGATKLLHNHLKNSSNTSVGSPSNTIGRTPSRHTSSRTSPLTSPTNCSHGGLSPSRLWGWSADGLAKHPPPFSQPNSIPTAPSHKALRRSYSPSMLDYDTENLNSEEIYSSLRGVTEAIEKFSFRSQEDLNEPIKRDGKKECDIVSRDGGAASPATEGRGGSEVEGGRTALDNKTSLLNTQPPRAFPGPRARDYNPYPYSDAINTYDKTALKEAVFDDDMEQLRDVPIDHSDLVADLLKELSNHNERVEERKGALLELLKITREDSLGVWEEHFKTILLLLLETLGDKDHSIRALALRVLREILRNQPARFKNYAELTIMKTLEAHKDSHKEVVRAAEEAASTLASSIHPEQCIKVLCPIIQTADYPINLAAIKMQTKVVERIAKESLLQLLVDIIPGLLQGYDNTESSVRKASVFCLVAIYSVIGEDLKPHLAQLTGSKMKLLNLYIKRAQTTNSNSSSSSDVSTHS
UniProt P54105: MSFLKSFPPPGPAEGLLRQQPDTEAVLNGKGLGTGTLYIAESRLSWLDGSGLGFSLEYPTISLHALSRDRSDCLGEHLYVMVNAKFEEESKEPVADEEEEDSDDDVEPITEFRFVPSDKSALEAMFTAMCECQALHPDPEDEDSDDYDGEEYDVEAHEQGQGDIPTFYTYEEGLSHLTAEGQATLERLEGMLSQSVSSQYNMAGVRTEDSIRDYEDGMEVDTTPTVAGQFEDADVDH
UniProt Q8NFW8: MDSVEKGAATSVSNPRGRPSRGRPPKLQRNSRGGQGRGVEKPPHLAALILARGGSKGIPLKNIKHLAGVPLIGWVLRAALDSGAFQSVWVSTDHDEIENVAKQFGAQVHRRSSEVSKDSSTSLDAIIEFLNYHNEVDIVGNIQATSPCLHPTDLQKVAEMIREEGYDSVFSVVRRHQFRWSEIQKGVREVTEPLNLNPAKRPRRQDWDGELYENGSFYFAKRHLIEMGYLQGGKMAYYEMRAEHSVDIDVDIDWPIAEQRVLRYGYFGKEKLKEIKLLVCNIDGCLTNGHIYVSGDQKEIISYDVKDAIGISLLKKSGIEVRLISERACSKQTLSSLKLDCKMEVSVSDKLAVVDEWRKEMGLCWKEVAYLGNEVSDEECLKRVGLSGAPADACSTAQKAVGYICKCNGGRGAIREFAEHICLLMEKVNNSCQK
UniProt P30622: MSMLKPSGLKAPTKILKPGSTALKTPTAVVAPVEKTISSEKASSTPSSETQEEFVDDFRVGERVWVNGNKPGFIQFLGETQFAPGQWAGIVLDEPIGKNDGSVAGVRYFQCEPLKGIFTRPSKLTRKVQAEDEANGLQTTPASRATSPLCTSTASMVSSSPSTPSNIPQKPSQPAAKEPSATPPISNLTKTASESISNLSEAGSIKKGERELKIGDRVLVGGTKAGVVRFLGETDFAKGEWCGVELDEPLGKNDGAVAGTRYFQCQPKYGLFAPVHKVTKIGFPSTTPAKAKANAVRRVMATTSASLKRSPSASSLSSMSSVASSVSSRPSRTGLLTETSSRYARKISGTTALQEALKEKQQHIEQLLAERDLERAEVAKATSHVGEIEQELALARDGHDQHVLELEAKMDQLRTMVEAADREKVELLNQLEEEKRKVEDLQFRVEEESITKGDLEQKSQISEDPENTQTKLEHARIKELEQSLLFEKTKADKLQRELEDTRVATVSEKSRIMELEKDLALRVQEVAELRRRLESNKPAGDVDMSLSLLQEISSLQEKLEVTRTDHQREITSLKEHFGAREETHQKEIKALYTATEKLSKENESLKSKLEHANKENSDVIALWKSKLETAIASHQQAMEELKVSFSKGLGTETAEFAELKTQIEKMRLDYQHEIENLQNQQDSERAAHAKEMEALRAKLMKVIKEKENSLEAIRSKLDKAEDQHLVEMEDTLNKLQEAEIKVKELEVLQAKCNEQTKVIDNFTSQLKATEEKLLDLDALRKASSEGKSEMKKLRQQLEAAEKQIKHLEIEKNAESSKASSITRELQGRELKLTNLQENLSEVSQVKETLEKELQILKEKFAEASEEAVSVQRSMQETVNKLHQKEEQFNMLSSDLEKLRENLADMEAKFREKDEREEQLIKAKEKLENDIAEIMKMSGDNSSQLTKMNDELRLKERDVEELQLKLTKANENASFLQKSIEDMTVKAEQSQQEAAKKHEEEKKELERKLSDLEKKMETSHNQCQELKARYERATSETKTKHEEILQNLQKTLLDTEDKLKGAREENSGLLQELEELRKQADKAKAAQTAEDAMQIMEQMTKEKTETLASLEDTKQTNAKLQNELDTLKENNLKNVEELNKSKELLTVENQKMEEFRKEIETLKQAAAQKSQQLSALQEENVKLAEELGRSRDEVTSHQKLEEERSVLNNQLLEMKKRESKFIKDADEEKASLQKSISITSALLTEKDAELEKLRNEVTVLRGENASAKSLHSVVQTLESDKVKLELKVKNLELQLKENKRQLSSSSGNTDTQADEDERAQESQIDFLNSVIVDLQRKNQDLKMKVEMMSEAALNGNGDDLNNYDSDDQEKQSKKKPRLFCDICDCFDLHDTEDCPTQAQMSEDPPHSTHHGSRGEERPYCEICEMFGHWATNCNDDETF
UniProt Q9H5X1: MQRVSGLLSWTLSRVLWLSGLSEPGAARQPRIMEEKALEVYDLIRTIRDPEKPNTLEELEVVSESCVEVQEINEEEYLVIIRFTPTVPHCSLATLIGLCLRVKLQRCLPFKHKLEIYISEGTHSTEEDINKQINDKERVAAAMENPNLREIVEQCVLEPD
UniProt P62633: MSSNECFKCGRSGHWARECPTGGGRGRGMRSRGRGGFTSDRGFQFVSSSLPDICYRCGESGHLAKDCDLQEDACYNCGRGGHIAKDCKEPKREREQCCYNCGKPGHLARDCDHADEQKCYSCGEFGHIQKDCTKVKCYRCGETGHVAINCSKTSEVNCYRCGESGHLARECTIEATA
UniProt P30085: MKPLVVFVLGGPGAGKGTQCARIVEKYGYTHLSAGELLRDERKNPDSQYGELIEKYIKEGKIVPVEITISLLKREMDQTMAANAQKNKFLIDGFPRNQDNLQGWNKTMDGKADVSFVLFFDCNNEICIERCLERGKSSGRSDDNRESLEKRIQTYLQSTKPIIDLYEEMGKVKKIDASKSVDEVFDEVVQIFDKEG
UniProt Q16740, whole entry, looked up: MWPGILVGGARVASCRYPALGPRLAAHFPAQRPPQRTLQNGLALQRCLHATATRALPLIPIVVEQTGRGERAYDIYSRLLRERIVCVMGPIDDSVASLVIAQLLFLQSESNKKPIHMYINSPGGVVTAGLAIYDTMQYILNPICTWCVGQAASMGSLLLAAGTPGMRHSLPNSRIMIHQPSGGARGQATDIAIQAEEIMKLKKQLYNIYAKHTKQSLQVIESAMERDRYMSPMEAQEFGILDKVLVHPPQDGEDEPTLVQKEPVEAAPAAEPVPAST
UniProt Q9NRP2: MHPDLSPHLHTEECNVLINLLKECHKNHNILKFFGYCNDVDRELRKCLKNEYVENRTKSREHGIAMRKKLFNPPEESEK
UniProt Q8N5K1: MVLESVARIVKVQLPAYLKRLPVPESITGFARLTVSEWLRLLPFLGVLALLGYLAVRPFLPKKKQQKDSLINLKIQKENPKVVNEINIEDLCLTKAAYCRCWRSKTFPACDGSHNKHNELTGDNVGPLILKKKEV
UniProt Q9NX76: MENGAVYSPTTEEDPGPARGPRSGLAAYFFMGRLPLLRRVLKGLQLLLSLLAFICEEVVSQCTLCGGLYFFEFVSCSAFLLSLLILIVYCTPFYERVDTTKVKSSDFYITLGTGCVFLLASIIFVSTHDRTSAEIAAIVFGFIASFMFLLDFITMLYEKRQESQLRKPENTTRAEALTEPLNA
UniProt Q9NZ45: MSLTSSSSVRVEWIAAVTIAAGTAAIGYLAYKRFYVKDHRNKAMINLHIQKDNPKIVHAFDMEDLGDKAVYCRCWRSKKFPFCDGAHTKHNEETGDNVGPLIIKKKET
UniProt Q92600, whole entry, looked up: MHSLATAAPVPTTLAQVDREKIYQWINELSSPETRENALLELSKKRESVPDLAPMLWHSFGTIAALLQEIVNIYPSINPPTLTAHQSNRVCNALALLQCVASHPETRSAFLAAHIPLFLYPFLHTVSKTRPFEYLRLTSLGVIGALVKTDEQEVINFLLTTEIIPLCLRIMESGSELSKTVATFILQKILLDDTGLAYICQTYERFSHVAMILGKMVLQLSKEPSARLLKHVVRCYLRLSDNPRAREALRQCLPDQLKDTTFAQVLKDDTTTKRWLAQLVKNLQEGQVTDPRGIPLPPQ

log2 fold change, inactive:
CISD3 (UniProt P0C7P0) 0.057
CLTA isoform 2 (UniProt P09496) -0.014
CMSS1 (UniProt Q9BQ75) -0.025
CNOT8 (UniProt Q9UFF9) 0.034
COA3 (UniProt Q9Y2R0) 0.006
CKB (UniProt P12277) 0.015
CNP (UniProt P09543) 0.006
CNOT6L (UniProt Q96LI5) 0
COL15A1 (UniProt P39059) -0.269
CLCN7 (UniProt P51798) 0.038
CLEC16A (UniProt Q2KHT3) -0.08
CLTB (UniProt P09497) -0.012
COA7 (UniProt Q96BR5) 0.096
CLASP1 (UniProt Q7Z460) 0.1
CNTN4 (UniProt Q8IWV2) 0.058
CKAP5 (UniProt Q14008) 0.094
CNOT10 isoform 6 (UniProt Q9H9A5) 0.016
CLIC1 (UniProt O00299) -0.01
CLNS1A (UniProt P54105) 0.021
CMAS (UniProt Q8NFW8) -0.013
CKMT1A (UniProt P12532) -0.023
CLIP1 isoform 1 (UniProt P30622) -0.02
CIAO2A (UniProt Q9H5X1) 0
CNBP isoform 6 (UniProt P62633) -0.061
CMPK1 (UniProt P30085) 0.004
CLPP (UniProt Q16740) 0.008
CLPTM1L (UniProt Q96KA5) 0.016
CMC2 (UniProt Q9NRP2) -0.076
CISD2 (UniProt Q8N5K1) -0.03
CMTM6 (UniProt Q9NX76) 0.171
CISD1 (UniProt Q9NZ45) -0.043
CLPB isoform 2 (UniProt Q9H078) 0.035
CNOT9 isoform 2 (UniProt Q92600) 0.05

Looked up one by one from the entries so far, 3 records:
log2 fold change, inactive:
CMPK1 (UniProt P30085) 0.004
CLPP (UniProt Q16740) 0.008
CLTB (UniProt P09497) -0.012
